According to article PMC3923683:
These are yes or no findings as the source states them, for the method shown. Binding seen in cells or lysates may run through a third protein. Here binding means that the protein was enriched with, or labelled near, the bait; the list need not be complete. Sequences can lack the tags named with a protein.

Biological target: T1, LAP (localization and purification) tagged human BBS4 (human) (UniProt Q96RK4)
T1 sequence: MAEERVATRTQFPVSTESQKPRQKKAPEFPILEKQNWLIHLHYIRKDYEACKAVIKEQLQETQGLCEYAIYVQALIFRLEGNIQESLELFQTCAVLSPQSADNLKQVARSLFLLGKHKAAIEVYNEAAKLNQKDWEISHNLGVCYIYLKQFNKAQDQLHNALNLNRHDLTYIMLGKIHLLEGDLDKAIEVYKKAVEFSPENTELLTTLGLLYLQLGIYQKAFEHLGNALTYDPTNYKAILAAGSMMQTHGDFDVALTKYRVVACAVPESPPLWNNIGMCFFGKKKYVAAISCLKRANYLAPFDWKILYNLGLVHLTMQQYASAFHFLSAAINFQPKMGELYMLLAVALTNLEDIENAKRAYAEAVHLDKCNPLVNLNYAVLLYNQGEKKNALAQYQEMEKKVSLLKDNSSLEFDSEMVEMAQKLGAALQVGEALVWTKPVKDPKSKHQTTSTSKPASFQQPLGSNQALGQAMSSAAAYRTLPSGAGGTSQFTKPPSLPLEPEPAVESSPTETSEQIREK
Experiment: affinity purification with mass spectrometry; single-step IP with anti-GFP affinity beads from whole testis lysate of LAP-BBS4 transgenic and wild-type mice; 4-12% NuPAGE gel, silver stain, excised bands identified by LC-MS/MS

B1: azacytidine-induced protein 1 (Azi1), mouse testis (protein, UniProt Q62036 1-1060)
chain: MKGSRTITATPEGSPEAVDLSLIGLPPPMSQRPGSASATRSIFRSMSVATGSEPRKKALEATGPGGPRAINNLRRSNSTTQVNQSWTGSPRPAEPTDFLMLFEGSTSGRRRVASLSKASSEKEATWNVLDEQPRGLALPASAQSPSTLDSALGPRRKECPLAPSFTANNRSNKGAVGNCVTTMVHNHYASSKMVSPPKSSNQTAPSLNNIVKAAAREGGEGSDLGKPRKNLSSASQSARGTTGLLRRREVTEEEAERFIHQVNQAAVTIQRWYRCQVQRRRAGAAALEHLLASKREGQRQRLGGGNLLELHRQEEAARKKAREEKARQARQAAIQVLQQKRAQKASEAEHRRPKDRPETRAPEQPRPMQEPGCVTHPKANNAGASIYPTGPADPCPPASESSPEQWQSPEDKPQDIHSQGEARQDLAVSGSSRGKARARATLDDLLDTLKLLEEEPEPLPHPKAYHKDRYAWTDEEEDANSLTADNLEKFGKLSAAPGPPDDGTLLSEAKLQSIMTFLDEMEKSGQERPAPWRESLVLEAGSGSEGSTSVMRLKLELEEKKQAMALLQRALAQQRDLTVRRVKETEKELTRQLRQQKEQYEATIQRHLSFIDQLIEDKKVLSEKCEAVVAELKHGDQRCRERVAQMQEQHELEIKKLKELMSATEKIRREKWINEKTKKIKEITVRGLEPEIQKLIAKHKQEVRRLRGLHEAELQQREEQAAQRHLRQAEELRQHLDREREVLGQQERERAQQRFEQHLEQEQRALEQQRRRLYNEVAEEKERLGQQAARQRAELEELRQQLEESSAALTRALRAEFERSREEQERRHQMELKALKDQLEAERQAWVASCAKKEEAWLLTRERELKEEIRKGRDQEIELVIHRLEADMTLAKEESERAAESRVKRVRDKYETELSELEQSERKLQERCSELKGRLGEAEGEKERLQSLVRQKEKELEDLRAVNTQMCSERASLAQVVRQEFAEQLAASQEETQRVKVELAELQARQQVELDEVHRRVKTALARKEAAVNSLRKQHEAAVKRADHLEELLEQHKGSSLSSK
For B1, the binding was “binds”.
